At least one structure is not confirmed: it was looked up by name or label, or the drawing left a doubt.
Tested on: chronic-progressive model of MS (EAE, MOG35-55)
Assay: Murine EAE model of chronic-progressive MS, Clinical Scoring Test
Assay type: in vivo, mice (C57BL/6)

## CCCCCCCCc1ccc(CCC(N)(CO)CO)cc1 [Fingolimod, fingolimod]
Days 31-35, Fingolimod, CeNPs Preventative and Therapeutic (7 Day Delay) 30 mg/kg
  Effectiveness of treatment groups compared with each other, chronic phase: equally effective
Fingolimod daily and CeNPs Preventative 30 mg/kg treatments
  Effectiveness compared with Therapeutic (7 Day Delay) CeNPs treatment, acute phase: significantly more effective
Days 0-30, CeNPs 30 mg/kg Preventative or Therapeutic (7 Day Delay), fingolimod daily in drinking water, p<0.05
  Disease severity relative to controls, acute phase: significantly reduced
Days 31-35, CeNPs 30 mg/kg Preventative or Therapeutic (7 Day Delay), fingolimod daily, p<0.05
  Disease severity relative to controls, chronic phase: significantly reduced

— patent US10729717B2, “Nanoceria for neutralizing free radicals” (CERION, LLC, priority 2012, dated 2020)
